Results are given in words; binding and its absence hold for the method and conditions named. Binding seen in cells or lysates may run through a third protein. Binding calls can cover weak binding; strength is not graded here.

Amino acid sequences for entries named in this document (tags omitted). A change or cut given only in a name is not applied to a line headed by its entry.
UniProt Q9N536: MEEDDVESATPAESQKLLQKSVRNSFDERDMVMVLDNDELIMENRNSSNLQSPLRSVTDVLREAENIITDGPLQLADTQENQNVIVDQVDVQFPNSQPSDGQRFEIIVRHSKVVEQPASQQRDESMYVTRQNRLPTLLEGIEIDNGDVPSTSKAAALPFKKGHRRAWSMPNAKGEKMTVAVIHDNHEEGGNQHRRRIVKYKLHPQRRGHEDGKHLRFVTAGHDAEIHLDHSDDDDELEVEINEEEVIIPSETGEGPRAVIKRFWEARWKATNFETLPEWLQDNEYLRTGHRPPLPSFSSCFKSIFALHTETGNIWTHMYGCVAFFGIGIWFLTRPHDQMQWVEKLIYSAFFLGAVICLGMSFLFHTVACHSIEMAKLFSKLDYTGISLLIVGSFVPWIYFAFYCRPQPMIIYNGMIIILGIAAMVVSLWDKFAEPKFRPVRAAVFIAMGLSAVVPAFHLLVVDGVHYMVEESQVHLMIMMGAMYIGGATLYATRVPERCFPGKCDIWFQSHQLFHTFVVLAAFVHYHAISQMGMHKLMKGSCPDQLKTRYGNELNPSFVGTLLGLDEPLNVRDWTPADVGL

The test deals with T1, IGLR-2∷mCherry (C. elegans) (UniProt P34595).
T1 sequence: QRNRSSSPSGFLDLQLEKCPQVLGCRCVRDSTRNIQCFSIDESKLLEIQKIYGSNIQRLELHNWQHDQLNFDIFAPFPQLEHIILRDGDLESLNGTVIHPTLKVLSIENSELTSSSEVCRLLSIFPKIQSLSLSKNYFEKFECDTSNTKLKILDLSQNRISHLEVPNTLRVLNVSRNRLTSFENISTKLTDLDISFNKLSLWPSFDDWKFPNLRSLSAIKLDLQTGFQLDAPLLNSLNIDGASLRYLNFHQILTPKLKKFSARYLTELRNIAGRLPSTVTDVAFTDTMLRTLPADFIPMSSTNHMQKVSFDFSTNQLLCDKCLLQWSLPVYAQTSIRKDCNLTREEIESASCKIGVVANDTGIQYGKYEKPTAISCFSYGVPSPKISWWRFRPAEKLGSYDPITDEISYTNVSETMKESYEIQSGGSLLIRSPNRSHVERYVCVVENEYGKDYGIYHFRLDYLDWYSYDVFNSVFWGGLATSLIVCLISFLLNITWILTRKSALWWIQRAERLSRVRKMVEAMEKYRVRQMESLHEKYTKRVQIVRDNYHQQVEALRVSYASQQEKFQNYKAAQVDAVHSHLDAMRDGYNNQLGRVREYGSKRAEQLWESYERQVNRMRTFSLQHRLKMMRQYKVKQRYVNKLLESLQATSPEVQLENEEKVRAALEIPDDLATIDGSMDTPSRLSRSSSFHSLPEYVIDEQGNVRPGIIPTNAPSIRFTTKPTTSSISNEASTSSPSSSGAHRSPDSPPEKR
The test is described as follows: FRET or BRET. (In general: BRET reads energy transfer from a luciferase to a nearby fluorophore.)

Take “PAQR-2∷GFP (from UniProt Q9N536) (receptor)”: the binding result is “binds”.

The record behind these values is publication doi:10.1101/2020.06.11.144329.
